In patent US20220332791A1 (ALIVEGEN, published 2022):
These are yes or no findings as the source states them, for the method shown. Some results given as binding are weak or reduced against the parent protein; the word gives no strength.

Sequences of proteins named here, by UniProt entry; tags and fusion partners are left off. A change or cut given only in a name is not applied to a line headed by its entry.
UniProt P27037: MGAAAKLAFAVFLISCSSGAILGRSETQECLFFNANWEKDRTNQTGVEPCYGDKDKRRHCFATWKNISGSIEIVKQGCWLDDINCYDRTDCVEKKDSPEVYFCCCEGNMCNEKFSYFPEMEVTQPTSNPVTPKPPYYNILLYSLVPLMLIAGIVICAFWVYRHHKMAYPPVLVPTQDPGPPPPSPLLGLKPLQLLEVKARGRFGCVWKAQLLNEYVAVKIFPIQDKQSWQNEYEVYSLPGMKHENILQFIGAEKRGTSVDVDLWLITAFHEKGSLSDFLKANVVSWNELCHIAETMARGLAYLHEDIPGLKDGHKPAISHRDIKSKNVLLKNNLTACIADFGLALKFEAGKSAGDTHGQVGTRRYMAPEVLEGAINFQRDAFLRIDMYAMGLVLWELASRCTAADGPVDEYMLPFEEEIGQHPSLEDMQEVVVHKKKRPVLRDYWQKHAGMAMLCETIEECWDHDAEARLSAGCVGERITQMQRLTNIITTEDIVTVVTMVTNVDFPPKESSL

How the values were obtained:
BMP9 [1] = molecular target: T1, BMP9 (UniProt Q9UK05 320-429); test: automated ELISA on KinExA: BMP9-coupled Sepharose beads, captured Fc fusion detected with Alexa Fluor 647 goat anti-human Fc
T1 sequence (looked up): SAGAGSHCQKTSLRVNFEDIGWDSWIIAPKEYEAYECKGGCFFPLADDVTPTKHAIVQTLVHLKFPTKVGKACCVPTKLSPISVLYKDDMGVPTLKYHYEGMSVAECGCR

BMP9 [2] = molecular target: T1, BMP9; test: automated ELISA on BMP9-coated beads (KinExA instrument), 100 pM, 1 nM and 10 nM; reference of the comparison

“wild-type ActRIIA ECD-Fc (from UniProt P27037 20-135) (Fc fusion)” was tested, and the binding (BMP9 [1]) was “binds” and the binding (BMP9 [2]) was “binds”.
